Measured values taken from article PMC10216487.
These are yes or no findings as the source states them, for the method shown. Binding seen in cells or lysates may run through a third protein. These calls come from enrichment with a bait or labelling near it, and not all partners need be listed.

Sequences of proteins named here, by UniProt entry; tags and fusion partners are left off.
UniProt Q96RK0: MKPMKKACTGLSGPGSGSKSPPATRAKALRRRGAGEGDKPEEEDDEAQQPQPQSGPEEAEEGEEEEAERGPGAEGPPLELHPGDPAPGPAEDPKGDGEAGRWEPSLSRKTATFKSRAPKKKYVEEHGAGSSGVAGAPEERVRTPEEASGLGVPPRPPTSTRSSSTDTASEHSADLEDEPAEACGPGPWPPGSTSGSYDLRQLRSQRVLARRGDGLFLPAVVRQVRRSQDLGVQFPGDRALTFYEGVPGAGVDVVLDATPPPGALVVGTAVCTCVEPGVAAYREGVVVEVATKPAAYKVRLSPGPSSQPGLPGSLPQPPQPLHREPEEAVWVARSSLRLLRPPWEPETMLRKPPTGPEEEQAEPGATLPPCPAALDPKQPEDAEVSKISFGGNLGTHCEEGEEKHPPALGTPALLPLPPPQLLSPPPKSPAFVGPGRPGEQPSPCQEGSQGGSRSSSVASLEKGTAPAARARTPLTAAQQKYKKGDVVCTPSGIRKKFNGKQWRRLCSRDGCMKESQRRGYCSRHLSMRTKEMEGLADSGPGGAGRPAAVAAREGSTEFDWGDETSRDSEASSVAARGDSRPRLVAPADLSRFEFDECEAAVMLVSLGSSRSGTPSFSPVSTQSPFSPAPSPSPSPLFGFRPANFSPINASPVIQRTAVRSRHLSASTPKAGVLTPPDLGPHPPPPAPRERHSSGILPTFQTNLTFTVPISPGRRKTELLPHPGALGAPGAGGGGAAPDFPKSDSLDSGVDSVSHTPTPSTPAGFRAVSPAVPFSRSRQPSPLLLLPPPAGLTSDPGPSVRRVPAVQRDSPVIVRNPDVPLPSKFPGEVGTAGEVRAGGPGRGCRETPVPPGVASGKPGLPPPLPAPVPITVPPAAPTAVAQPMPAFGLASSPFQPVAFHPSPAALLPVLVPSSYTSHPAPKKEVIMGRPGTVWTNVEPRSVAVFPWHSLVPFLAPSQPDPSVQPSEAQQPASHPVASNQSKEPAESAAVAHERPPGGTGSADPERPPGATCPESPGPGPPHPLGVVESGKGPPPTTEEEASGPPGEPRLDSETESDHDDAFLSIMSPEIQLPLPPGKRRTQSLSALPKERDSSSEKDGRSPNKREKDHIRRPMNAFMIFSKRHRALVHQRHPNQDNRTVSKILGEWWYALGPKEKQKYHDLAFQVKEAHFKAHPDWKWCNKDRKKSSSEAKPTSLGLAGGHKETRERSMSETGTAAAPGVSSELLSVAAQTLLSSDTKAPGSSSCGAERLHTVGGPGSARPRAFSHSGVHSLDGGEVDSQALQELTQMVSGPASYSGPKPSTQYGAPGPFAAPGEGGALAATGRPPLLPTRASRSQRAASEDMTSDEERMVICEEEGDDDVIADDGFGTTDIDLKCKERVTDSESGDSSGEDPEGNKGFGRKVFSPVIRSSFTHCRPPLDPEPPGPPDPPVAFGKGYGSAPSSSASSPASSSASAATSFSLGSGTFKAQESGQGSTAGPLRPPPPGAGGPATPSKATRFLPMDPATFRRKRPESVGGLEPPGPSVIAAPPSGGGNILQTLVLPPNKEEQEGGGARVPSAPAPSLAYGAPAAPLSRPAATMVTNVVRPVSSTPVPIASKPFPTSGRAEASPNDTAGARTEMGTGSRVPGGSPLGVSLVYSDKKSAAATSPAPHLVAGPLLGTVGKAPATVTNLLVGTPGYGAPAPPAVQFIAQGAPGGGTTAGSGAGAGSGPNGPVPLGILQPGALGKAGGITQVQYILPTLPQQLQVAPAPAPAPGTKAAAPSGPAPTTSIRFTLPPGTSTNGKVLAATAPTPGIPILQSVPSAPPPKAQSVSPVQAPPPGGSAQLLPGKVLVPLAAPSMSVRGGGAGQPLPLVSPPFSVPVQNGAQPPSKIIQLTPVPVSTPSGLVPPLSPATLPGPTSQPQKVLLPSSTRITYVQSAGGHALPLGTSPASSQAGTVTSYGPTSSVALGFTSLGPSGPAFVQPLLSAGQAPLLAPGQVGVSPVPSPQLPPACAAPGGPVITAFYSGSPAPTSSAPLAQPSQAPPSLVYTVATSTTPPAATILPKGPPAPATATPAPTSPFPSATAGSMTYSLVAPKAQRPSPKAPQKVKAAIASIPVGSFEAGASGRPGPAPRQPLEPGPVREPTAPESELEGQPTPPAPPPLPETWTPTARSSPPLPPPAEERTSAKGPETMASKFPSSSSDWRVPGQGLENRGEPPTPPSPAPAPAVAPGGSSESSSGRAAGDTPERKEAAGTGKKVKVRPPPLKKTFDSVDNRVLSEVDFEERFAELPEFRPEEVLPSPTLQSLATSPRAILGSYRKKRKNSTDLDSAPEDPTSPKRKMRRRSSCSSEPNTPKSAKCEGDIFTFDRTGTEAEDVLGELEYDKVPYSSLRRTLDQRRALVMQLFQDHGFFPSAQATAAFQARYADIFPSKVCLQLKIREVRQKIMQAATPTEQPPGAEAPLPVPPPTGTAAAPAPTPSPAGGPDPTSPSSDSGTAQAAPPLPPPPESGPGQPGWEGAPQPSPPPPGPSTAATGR

B1: GNL3 (protein, UniProt Q9BVP2 1-549)
chain: MKRPKLKKASKRMTCHKRYKIQKKVREHHRKLRKEAKKRGHKKPRKDPGVPNSAPFKEALLREAELRKQRLEELKQQQKLDRQKELEKKRKLETNPDIKPSNVEPMEKEFGLCKTENKAKSGKQNSKKLYCQELKKVIEASDVVLEVLDARDPLGCRCPQVEEAIVQSGQKKLVLILNKSDLVPKENLESWLNYLKKELPTVVFRASTKPKDKGKITKRVKAKKNAAPFRSEVCFGKEGLWKLLGGFQETCSKAIRVGVIGFPNVGKSSIINSLKQEQMCNVGVSMGLTRSMQVVPLDKQITIIDSPSFIVSPLNSSSALALRSPASIEVVKPMEAASAILSQADARQVVLKYTVPGYRNSLEFFTVLAQRRGMHQKGGIPNVEGAAKLLWSEWTGASLAYYCHPPTSWTPPPYFNESIVVDMKSGFNLEELEKNNAQSIRAIKGPHLANSILFQSSGLTNGIIEEKDIHEELPKRKERKQEEREDDKDSDQETVDEEVDENSSGMFAAEETGEALSEETTAGEQSTRSFILDKIIEEDDAYDFSTDYV
B2: NONO (protein, UniProt Q15233 1-471)
chain: MQSNKTFNLEKQNHTPRKHHQHHHQQQHHQQQQQQPPPPPIPANGQQASSQNEGLTIDLKNFRKPGEKTFTQRSRLFVGNLPPDITEEEMRKLFEKYGKAGEVFIHKDKGFGFIRLETRTLAEIAKVELDNMPLRGKQLRVRFACHSASLTVRNLPQYVSNELLEEAFSVFGQVERAVVIVDDRGRPSGKGIVEFSGKPAARKALDRCSEGSFLLTTFPRPVTVEPMDQLDDEEGLPEKLVIKNQQFHKEREQPPRFAQPGSFEYEYAMRWKALIEMEKQQQDQVDRNIKEAREKLEMEMEAARHEHQVMLMRQDLMRRQEELRRMEELHNQEVQKRKQLELRQEEERRRREEEMRRQQEEMMRRQQEGFKGTFPDAREQEIRMGQMAMGGAMGINNRGAMPPAPVPAGTPAPPGPATMMPDGTLGLTPPTTERFGQAATMEGIGAIGGTPPAFNRAAPGAEFAPNKRRRY
B3: GAR1 (protein, UniProt Q9NY12 1-217)
chain: MSFRGGGRGGFNRGGGGGGFNRGGSSNHFRGGGGGGGGGNFRGGGRGGFGRGGGRGGFNKGQDQGPPERVVLLGEFLHPCEDDIVCKCTTDENKVPYFNAPVYLENKEQIGKVDEIFGQLRDFYFSVKLSENMKASSFKKLQKFYIDPYKLLPLQRFLPRPPGEKGPPRGGGRGGRGGGRGGGGRGGGRGGGFRGGRGGGGGGFRGGRGGGFRGRGH

biological target: Capicua (CIC), endogenous (human (endogenous in HEK293A and NHA)) (UniProt Q96RK0); experiment: affinity purification with mass spectrometry; nuclear fractions of NHA (NHA-CIC^WT) cells; CIC IP in triplicate with matched IgG controls; 'trigger peptides' used to enhance MS sensitivity for a subset of proteins

| binding | Binder |
| --- | --- |
| binds | B1 |
| binds | B2 |
| binds | B3 |

biological target: Capicua (CIC), endogenous (human (endogenous in HEK293A and NHA)) (UniProt Q96RK0); experiment: affinity purification with mass spectrometry; nuclear fractions of HEK293A (HEK-CIC^WT) cells; IP with anti-endogenous CIC antibody (three replicates) or anti-Myc for stably expressed N-Myc-CIC-S (one experiment); LC-MS/MS; candidates identified in at least two of four replicates

| binding | Binder |
| --- | --- |
| binds | B1 |
| binds | B2 |
| binds | B3 |
